# Laboratory results taken from PubChem BioAssay AID1508600 (Functional Genomics Laboratory (NCATS/FGL), 2020).
# Out of some 53,000 sequences screened, about 3,700 (7%) were called active.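 The calls were made as follows: active = gene knockdowns whose robust z-score for IL-1 alpha signal is at least 2 or at most -2, so actives lie on both sides; inactive = the rest.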 This is one part of the list.
# Assay: Components of the Cytosolic LPS Sensing Pathway: Gene Identification via Genome-wide siRNA Screen;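 also: robust z of the log signal after scaling to non-targeting control siRNA wells of the plate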
# Settings: RAW264.7 macrophages, IL-1a HTRF, actives lie on both sides, screened at 100 nM (by protocol), cells primed 5 h with Pam3CSK4 first
# How it was run: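 RAW264.7; siRNA 100 nM final, RNAiMAX, 48h 37 degrees C; Pam3CSK4 5 h; LipidA + TransIT-TKO 24 h; IL-1a HTRF; CellTiter-Glo viability; robust z vs negative-control median.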
row,Sequence,z-score
1,GGUUGAAGGAGUGUUUUAUTT against Rtcb,active: 2.09
2,GGAGAAAAGCUGUAUACACTT against Tmem177,inactive: 1.22
3,CCAGUGAUUAUCUUUAAUGTT against Slc9c1,inactive: -0.435
4,CCUAAACCAGUCUUUUCUCTT against Cnep1r1,inactive: 0.369
5,GCCCUUGCCUCUGUAGAUGTT against Olfr857,inactive: 0.312
6,CGCAUAUAUGUGUGUCGCCTT against Tmem125,inactive: 0.256
7,GGAGUUUGACAAAGAGAAATT against Mlc1,inactive: -0.181
8,GGACACAUUAUCCAGUGACTT against Tmem91,inactive: 1.15
9,GGUGGCUCAAUUCUUGAAGTT against Tagln,inactive: 0.806
10,GGCCGUGUGCAUCUUUGUGTT against Gpr20,inactive: 1.43
11,GGAAAUCUUAACUAGUAUGTT against Nutf2,inactive: 1.45
12,GGAAAGCAAAAGUUUACAATT against Mdh1b,inactive: -0.458
13,GCUGAUGAUCUACAUCUCCTT against Srd5a3,inactive: 0.768
14,GCGAUAAAACCCUAAAGCUTT against Wdr83,inactive: 0.055
15,CGCAUUGAUUCAUUUAAUGTT against Abca8a,inactive: -0.383
16,GCUUGAUUUUAUGUUAGCUTT against Hapln1,inactive: -1.28
17,CGGAGCAUGAGCCAGAUAUTT against Eipr1,inactive: -0.266
18,GGGUUUCAGAACUGAGUUATT against Saa1,inactive: -0.28
19,GGUGCUAUUUACCAAACUCTT against Btg2,inactive: 1.82
20,GGUAUUGACAGAAUGAGUUTT against Zfp109,inactive: -0.464
21,GGAGUUAAUCAGUCAAAUGTT against Dclk2,inactive: 0.754
22,CGUUUCUGUGGACAGAAUUTT against Pip4p1,inactive: -0.836

# A few values from the results shown.
# GGAGUUAAUCAGUCAAAUGTT against Dclk2 | z-score: inactive: 0.754
# GGGUUUCAGAACUGAGUUATT against Saa1 | z-score: inactive: -0.28
# CGCAUUGAUUCAUUUAAUGTT against Abca8a | z-score: inactive: -0.383

# Remaining list, next part

row,Sequence,z-score
1,GGCGAAGUGGUUAAAAGUGTT against Ifnar1,inactive: -0.141
2,GGUUUUGUGGGAAGAGUCATT against Ccdc163,active: -2.99
3,GGAAGAGGAGGAGCUGAUGTT against Speer4f1,inactive: -0.56
4,GGUGGAGGUCUGGUUUAAGTT against Gsc,inactive: -0.4
5,GGUACUGCUAAGCAAAGUCTT against Zdhhc3,inactive: 1.82
6,CGGAAAAAUUCGGAAAGAATT against Tulp4,inactive: 1.62
7,GGGCAUCGAUAUCAUGCUATT against Epb41l1,inactive: -0.387
8,GGACCUGUUUGAUUUGGUGTT against Nf2,inactive: 0.8
9,GGAGAGGAUGCAUGUAAAATT against Fbxl22,inactive: -1.19
10,GCUAUGUGGGAAGUUUCAUTT against Tmem263,inactive: 0.924
11,CCCAAAGUUACAACACUGUTT against Gm5142,inactive: 0.216
12,GGAUGAGCUCAAGAAGUCCTT against Snrpa,inactive: 0.698
13,GCCAUUUAUUGAAACUCGCTT against Becn1,inactive: -0.905
14,AAUGUAGUCAAAUCAAAGATT against Sprr2a1,inactive: -0.326
15,GCUGGAUCGUUACGUUUAUTT against Mios,inactive: 0.507
16,CCAAAACAAGAAUCAUAUGTT against Clca3b,inactive: -1.35
17,GCAGAGACGUGAUUGAUCGTT against H2bc18,inactive: -1.17
18,GGUGCCUGAGGUUCUUUUUTT against Actrt1,inactive: 0.751
19,GGUGUGACGGUGCCUAUAUTT against D10Wsu102e,inactive: -0.929
20,CCUUGAUGACGAAAACAUATT against Plekha2,inactive: -1.43
21,GGAGCUGUGCAAGAGGAAATT against Wnt16,inactive: 1.01
22,GGGAGUCCUUUUCAAACCATT against Cldn15,inactive: -0.461

# No new results follow: an excerpt of the list.
row,Sequence,z-score
18,GGUGCCUGAGGUUCUUUUUTT against Actrt1,inactive: 0.751
19,GGUGUGACGGUGCCUAUAUTT against D10Wsu102e,inactive: -0.929
20,CCUUGAUGACGAAAACAUATT against Plekha2,inactive: -1.43
21,GGAGCUGUGCAAGAGGAAATT against Wnt16,inactive: 1.01

# Additional entries follow:

row,Sequence,z-score
1,GGGUUUGACAAAAUUGACCTT against Nudt6,inactive: -0.983
2,CAGUAGGUAUGUUCACUGGTT against Olfr1000,inactive: -1.79
3,CCACCUAUCAGGAUUCAACTT against Sf3b6,active: -3.37
4,GGAUCUAAGGAAGUUUCUGTT against Gfpt2,inactive: 0.594
5,GGUGUCAACCAGUUGUUUUTT against Nr2c1,inactive: -1.2
6,GGUUGAUGUGGAGAAGGUGTT against Gnaq,inactive: 0.786
7,GCGACGUAAAUUUUGCUUUTT against Tlr5,inactive: 1.55
8,GGCAGGAGAUGGUAACUGCTT against Phc2,inactive: 1.08
9,GCACCUUAUGGGUAGAAAATT against Mtmr2,inactive: -0.0164
10,GCUGACAUUGAGAAUCGGGTT against Ptpn6,inactive: -0.0671
11,GCAAGACCCGUCACAAUCUTT against Slc16a9,inactive: 0.013
12,CCUUCAGCAAUCUCAGAAATT against Olfr295,inactive: 1.64
13,GGCCUUAGAACAAGGAAUATT against Cdk7,inactive: -0.769
14,GGGUCAUCUGUAAUUUCCATT against Cst10,inactive: -0.424
15,CCCAGCAGGCCAUAUUAGUTT against Cks1b,inactive: 0.377
16,GGGAGUUGGUGGAAUGCUUTT against Ech1,inactive: -0.221
17,GGAUAGACAUCAGAAACUATT against Ranbp17,inactive: 1.18
18,GGACAAUGAUUUUCUGAUUTT against Sv2b,inactive: 0.962
19,GGCCUUUGGGAAAACAUGGTT against Zcchc14,active: -2.16
20,GGAUGACCUUUCAUUCAAATT against Cep295,inactive: 0.476
21,GGUGUUUGACACUCAAGCATT against Vmn1r75,inactive: 0.521
22,GGUCGAAAGAUUCCUGAAGTT against Hs3st1,inactive: -0.324

row,Sequence,z-score
1,GGAAAGAGAGUCUUAAAUGTT against Cyb5r4,inactive: 0.863
2,GCAUGGAGGACUUUGUCACTT against Imp3,inactive: -1.26
3,GCCAUUACAAGAGCUGUUCTT against Myt1l,inactive: 1.29
4,GCUGGAGAAAGCGGAGAUATT against Hes7,inactive: 0.747
5,GGAUCUGAAGACAUGGAGATT against H2-M1,inactive: 0.659
6,GGAAGAAACGGAGACUCAATT against Dpf1,inactive: 0.052
7,CCACAAGAUUGUUUCAGAATT against Lingo4,inactive: 0.216
8,GGUGUCCUGGCUGUAUGCATT against Gfra4,inactive: -1.09
9,GGCCAGUUCUCGUUUGGAATT against Dr1,inactive: 0.884
10,GGUGUGUAAUGUGCGUGAGTT against Ephb3,inactive: 1.11
11,CCGAAAGAUCAGCACAUCCTT against Olfr24,inactive: -0.184
12,GGGAUGUUUAGGUCACCUUTT against 4933434M16Rik,active: -2.35
13,GGUUCAGAUGUCUGAUAAATT against Mrm3,inactive: 1.43
14,GGAAUUUGGUGACGACAAGTT against Ing4,inactive: -0.467
15,GCUUGCUAGAUUGGUGUUGTT against Arhgap17,active: 3.32
16,GCUUAUGAUGUAUUUCGUGTT against Ttpa,inactive: 0.134
17,GGCAAGCAAGCAUAUUAUCTT against D830013H23Rik,inactive: 0.252
18,GGAUGAAAGCCAUUAAGUUTT against Tifa,inactive: -0.251
19,CCCUAAGGCAUUAUUAUUCTT against Nkd1,inactive: 1.27
20,GGUGUGCCUAUGUUAUAGUTT against Slc13a5,inactive: -0.982
21,GCCUCUAAGCUACACUACATT against Olfr1289,inactive: -0.0553
22,GCCCUUUUCCUUAAUUUAUTT against Neurl1a,inactive: 0.669

row,Sequence,z-score
1,GGUGGUGCUUUACGUCAAATT against Bzw2,inactive: -0.268
2,GGAACCUACCUCACCUUUGTT against Fscn3,inactive: -0.749
3,GGCUUUUAAGUUCUUCCAGTT against Ptbp3,active: 2.44
4,GGAAUCUCAAGAGCUACAGTT against Ccl7,inactive: -0.52
5,GGAAAUAAACACUAUGCAUTT against Zfp33b,inactive: -1.16
6,CGAUCUCCCAGGCAAUAACTT against Llcfc1,inactive: -0.882
7,GGGUUCGAGAAAAAAUUGATT against Ubxn1,inactive: 0.383
8,GGAGCCAAAUAUUAGCGCGTT against Mgp,inactive: -0.0563
9,GGAUGAGGAGGAAAAGCUGTT against Nop2,inactive: -1.86
10,GGGCUGGCAGAAUAGCAUCTT against Foxl2,inactive: 0.592
11,GGUGCUGGACAAAUUGAGATT against Cgas,inactive: -0.189
12,CCUGGCCAUGUCGAAAGAUTT against Pla2g6,inactive: 0.716
13,GGACAUGGAGAUUAGAGUCTT against Tcl1b4,inactive: -0.479
14,GGUCUAUCUACGCUGUGUUTT against Cd36,inactive: -1.28
15,GUUCUUCUCAUCUUCCGCUTT against Olfr1506,inactive: 0.535
16,GCUUGUCUAGAAACACCAUTT against Lrfn3,inactive: -0.189
17,GGACUCCCUUCUAGGUGAATT against Mcm7,inactive: 1.12
18,GGGAUGAUUUUGAGAUUUUTT against Dmpk,active: 2.74
19,GGUUCUCAGAGCUUGUAGATT against Sned1,inactive: -0.442
